## Results of single-concentration screens

Chains of the proteins cited; added tags and fusions are not shown.
UniProt P9WFT3, whole entry: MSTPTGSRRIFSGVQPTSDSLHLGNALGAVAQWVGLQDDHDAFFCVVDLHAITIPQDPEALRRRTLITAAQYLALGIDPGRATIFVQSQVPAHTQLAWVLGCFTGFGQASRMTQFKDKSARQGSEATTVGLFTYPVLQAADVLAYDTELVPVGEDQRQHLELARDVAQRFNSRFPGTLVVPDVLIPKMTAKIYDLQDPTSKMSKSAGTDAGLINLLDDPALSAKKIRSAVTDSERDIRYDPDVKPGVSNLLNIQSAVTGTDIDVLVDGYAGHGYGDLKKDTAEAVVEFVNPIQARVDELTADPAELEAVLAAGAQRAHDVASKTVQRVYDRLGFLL
UniProt P9WNZ1, whole entry: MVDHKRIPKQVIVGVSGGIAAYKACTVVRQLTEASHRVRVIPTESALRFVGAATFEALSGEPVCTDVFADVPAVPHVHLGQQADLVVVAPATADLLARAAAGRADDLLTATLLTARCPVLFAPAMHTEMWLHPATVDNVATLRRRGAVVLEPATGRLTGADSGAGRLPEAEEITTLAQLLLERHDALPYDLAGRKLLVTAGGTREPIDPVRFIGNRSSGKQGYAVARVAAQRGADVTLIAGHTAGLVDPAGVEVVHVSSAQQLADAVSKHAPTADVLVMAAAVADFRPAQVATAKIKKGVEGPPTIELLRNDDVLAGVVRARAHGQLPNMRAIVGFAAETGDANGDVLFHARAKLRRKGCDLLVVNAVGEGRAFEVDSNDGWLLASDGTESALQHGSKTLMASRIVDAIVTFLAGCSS
UniProt P9WPC5, whole entry: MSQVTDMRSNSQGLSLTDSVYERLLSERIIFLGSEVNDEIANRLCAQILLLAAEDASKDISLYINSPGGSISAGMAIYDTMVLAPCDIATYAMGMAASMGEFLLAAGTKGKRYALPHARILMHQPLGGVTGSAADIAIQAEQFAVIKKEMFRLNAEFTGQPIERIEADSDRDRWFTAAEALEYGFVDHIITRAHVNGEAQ
UniProt P9WPC3, whole entry partner: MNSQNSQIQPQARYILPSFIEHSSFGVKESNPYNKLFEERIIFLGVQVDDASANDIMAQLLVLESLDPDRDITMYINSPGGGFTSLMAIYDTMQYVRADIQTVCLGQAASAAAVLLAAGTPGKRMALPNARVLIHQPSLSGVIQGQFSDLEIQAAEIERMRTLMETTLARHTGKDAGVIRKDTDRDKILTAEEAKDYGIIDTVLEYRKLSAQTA

Measurements from “University of Dundee, Small-Polar-MMV Screening Library” (2021), ChEMBL document CHEMBL3988442.

Each number is a percent effect as filed.
How 0% and 100% were set is not recorded. Most values in the screen are low, and negative values occur.
The compounds are a random part of those screened.
A dash means the value is not listed here; it may have been measured.

MtTrpRS: 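Tryptophan-tRNA ligase, Mycobacterium tuberculosis (UniProt P9WFT3). Enzyme assay of tryptophanyl-tRNA synthetase; the read-out is not stated. Concentration: 10 µM. Higher most likely means stronger inhibition; the record gives no direction and few retests gave an IC50. Of about 65,000 compounds tested this way, about 64 (0.098%) reached 50% or more in at least one test.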
CoaBC: 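Coenzyme A biosynthesis protein CoaBC, Mycobacterium tuberculosis (UniProt P9WNZ1). Enzyme assay of CoaBC with a phosphate dye (Biomol Green) read at 650 nm. Compounds at 30 µM. Direction is inferred from only a few compounds that gave an IC50; most scored high, so higher reads as stronger inhibition. Most strong results did not repeat in a second test. Of about 67,000 compounds tested this way, about 40 (0.06%) reached 50% or more in at least one test.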
ClpP1P2: 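Protease assay of ClpP1P2, read by the AMC dye that it sets free. Target: ClpP1P2, Mycobacterium tuberculosis (UniProt P9WPC5 and UniProt P9WPC3). Concentration: 50 µM. Higher reads as stronger inhibition, judged from the few compounds that gave an IC50. Most other retested compounds had strongly negative values. About 69,000 compounds were tested under these conditions; 0.015% (about 10) showed 50% or more at least once.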

compound | MtTrpRS | CoaBC | ClpP1P2
COCCN(Cc1ccc(F)cc1Cl)C(=O)c1cc[n+]([O-])cc1 | -2.028% | -2.244% | -7.579%
CC(C)CNC(=O)c1ccc(NC(=O)NC(C)c2ccccn2)cc1 (stereo not drawn) | 2.147% | 0.609% | 1.671%
COc1c(C2CCCN2CC(=O)Nc2nc(C)cs2)c(C)nn1C (stereo not drawn) | -4.568% | 1.686% | -3.096%
COc1cccn(CC(=O)N2CCC3(CCNCC3)C2)c1=O | 5.91% | 2.3% | 1.585%
CCc1nc(CN(C)C(=O)C2CC(=O)N(c3cccc(O)c3)C2)no1 (stereo not drawn) | -0.7971% | -3.739% | 9.074%
COCC1CN(C(=O)Nc2cc(C(F)(F)F)ccc2F)CCO1 (stereo not drawn) | 0.7261% | -10.41% | 10.21%
CS(=O)(=O)N[C@@H]1CN(Cc2ccc3ncccc3c2)C[C@H]1O | 1.634% | -3.881% | -7.79%
COc1cccc(OCC(=O)NS(=O)(=O)c2cccnc2)c1 | -2.6% | 3.836% | -28.12%
c1csc(CN2CCCn3cnc(COCC4CC4)c3C2)n1 | 10.5% | 4.516% | -15.62%
CN1CCN(C(=O)Cc2cccc(F)c2)Cc2cccnc21 | 2.237% | -7.273% | -10.85%
CC(C)c1noc(CN(Cc2ccccc2)C2CC2)n1 | -3.163% | 2.03% | -9.16%
CCc1noc(C2CCCCN2C(=O)c2sccc2C)n1 (stereo not drawn) | 2.979% | -2.309% | -0.4683%
Cc1nc(CC(=O)N2CCC(c3nn(C)c4ncccc34)CC2)cs1 | - | 2.696% | 5.017%
CCc1noc(CN(C)C(=O)COc2cc(Cl)cc(Cl)c2)n1 | 1.04% | 5.992% | -0.4111%
CCSCCC(=O)Nc1ncn(Cc2cccnc2)n1 | 2.664% | -8.482% | -15.92%
CCCC1(CO)CCCN(C(=O)CNC(C)=O)C1 (stereo not drawn) | -2.448% | 5.395% | 6.768%
CCC[C@@H]1CN(Cc2ccccc2C#N)C[C@H]1NC(C)=O | 2.376% | 6.743% | -3.133%
CC(CNC(=O)c1cccc(-n2cccn2)n1)Cn1ccnc1 (stereo not drawn) | 6.357% | - | 5.216%
O=C(O)[C@@H]1CN(Cc2cnc(C3CCCCC3)nc2)C[C@H]1C1CC1 | 8.495% | -12.47% | -7.556%
O=C(CCN1CCCN(c2nccs2)CC1)NCC1CCCCC1 | -2.449% | 5.346% | 0.5289%
CCC(C)NC(=O)Cn1ncc2c1c(C)nn2CC (stereo not drawn) | -4.176% | -0.9709% | 25.8%
CC(c1nc(C2CC2)no1)N1CCN(Cc2cccc(F)c2F)CC1 (stereo not drawn) | -0.9893% | 3.579% | -3.233%
CCOc1ccc(CN(C)C2CCN(c3cc(C)nn3C)C2=O)cc1 (stereo not drawn) | -1.837% | 1.572% | -5.716%
O=C(c1cnc(C2CC2)s1)N1CCCCC1Cn1cccn1 (stereo not drawn) | -3.801% | -7.833% | -1.169%
Cc1cccc(C(=O)N2C[C@@H]3COC[C@@H](CC(=O)N4CCCC4)[C@@H]3C2)n1 | 5.83% | 7.27% | 11.76%
Cc1ccc2c(c1)c(CNC(=O)C1CCN(CC(N)=O)CC1)nn2C | -2.462% | -18.2% | 5.045%
CC1CCC(NCCCN2CCOCC2)CC1 (stereo not drawn) | 3.468% | -0.2484% | -9.889%
Cc1nc(O)cc(C2CCN(C(=O)c3[nH]nc4c3CC(C)CC4)CC2)n1 (stereo not drawn) | 2.673% | 2.417% | -2.114%
O=C1CC2(CCN(Cc3ccco3)C2)CN1c1ccc2c(c1)OCO2 (stereo not drawn) | -0.8718% | 8.824% | -0.1725%
O=C(CCNC(=O)C1=Cc2ccccc2OC1)NCc1ccncc1 | -3.981% | -1.914% | -0.5686%
CC(C)C(=O)NCC(=O)N(C)C1CCCN(CCc2ccccc2)C1 (stereo not drawn) | -3.793% | 6.61% | -4.763%
CNC(=O)CN1CCOCC2(C1)CN(C(=O)CC(C)C)CCO2 (stereo not drawn) | 1.936% | 1.253% | -0.08173%
Cc1ccc(N(CCC#N)C(=O)CCc2cscn2)cc1C | -3.374% | 2.93% | -0.1337%
Cc1cc(C2CCCN2Cc2ccc(S(=O)(=O)N3CCCC3)o2)on1 (stereo not drawn) | 2.185% | 3.969% | 12.23%
Cc1nc(CC(=O)N2CCn3c(nnc3C(C)C)C2)cs1 | -3.848% | 5.882% | -45.13%
O=C(Cn1ccc2ccc(Cl)cc21)/N=c1\[nH]nc(C2CCCO2)s1 (stereo not drawn) | -6.431% | -1.58% | -0.8808%
CCc1nn(C)c(Cl)c1CN1CCN(c2ccc(Cl)nn2)CC1 | 11.79% | 6.452% | -7.823%
CCOc1ccc2ccccc2c1CNCC1CCNCC1 | -7.381% | 3.354% | -15.57%
COCCN1CCOCC12CCN(C(=O)c1ccoc1)CC2 | -1.451% | -2.637% | 7.487%
CCCn1nccc1C(=O)Nc1ncc(C)s1 | 1.583% | 1.01% | 2.858%
CN(C)CCN1CCO[C@H]2CN(C(=O)c3ccsc3)C[C@H]21 | - | 0.9756% | 2.634%
O=C(O)C1(Cc2cc(-c3ccc(F)cc3F)no2)CCOCC1 | -1.589% | -1.389% | 4.854%
O=C(Cn1ccnc1)N1C[C@@H]2CC[C@H](Oc3ccccc3F)[C@@H]2C1 | - | -0.7353% | 5.494%
O=C(CN1CCCC(CO)C1)NCCOc1cccc(Cl)c1 (stereo not drawn) | -5.818% | -0.7246% | 11.42%
c1cc(C2CCCN2CC2CC2)n[nH]1 (stereo not drawn) | -9.758% | 12.82% | 5.868%
Cc1nc(CN(CCS(C)(=O)=O)C(C)C)no1 | -1.016% | -5.957% | -17.29%
NC(=O)c1cc(NC(=O)N2CCOCC2)ccc1F | -2.389% | 2.538% | -3.418%
Cc1nc(CCN2CCC(Oc3ccccc3F)CC2)c(C)s1 | 2.346% | 2.871% | -10.96%
CNc1cncc(C2CCCN2C(=O)c2ccc3c(c2)OCCO3)n1 (stereo not drawn) | - | 0% | -5.702%
CCOc1cccc(C2CC(=O)NCc3nc(N)sc32)c1 (stereo not drawn) | 1.49% | 15.89% | -3.765%
Cn1ccc(C(=O)NCCOc2ccc3c(c2)OCO3)cc1=O | -5.263% | -9.375% | 10.27%
O=C(c1c[nH]c2ccccc2c1=O)N1CCSCC1 | -0.6274% | 5.34% | -6.824%
O=C(c1cccnc1O)N1CCOC(c2ccc(Cl)cc2)C1 (stereo not drawn) | 1.63% | -0.6593% | -1.274%
O=C(NC1CCCCC1)N1CCCC1c1nnc2n1CCNC2 (stereo not drawn) | 22.56% | 0.7895% | -2.225%
Fc1ccc(CN2C[C@@H]3OCCN(CCN4CCCC4)[C@@H]3C2)cc1 | 0.3666% | -20.33% | -0.9923%
CN(C(=O)Cc1c[nH]c2ccccc12)C1CCN(c2ccccn2)CC1 | -1.098% | 7.692% | -0.7439%
Cc1ccc(C(O)CNC(=O)NCc2csc(C)n2)cc1 (stereo not drawn) | -6.907% | 0.7653% | -6.232%
CCc1cnc(CNC(=O)NC2CCN(C3CCCC3)CC2)s1 | -1.725% | 18.93% | -15.07%
Cc1cccnc1NC(=O)CNC(=O)c1ccccc1Cl | -2.408% | 1.22% | -10.78%
Cc1n[nH]cc1CNC(C(=O)N1CCOCC1)c1ccccc1 (stereo not drawn) | -0.3666% | -7.642% | 10.68%
Cc1cc(NC(=O)NCC(C)O)n(C)n1 (stereo not drawn) | 0.9434% | 2.394% | 4.691%
CN1CCN(c2cc(CNC(=O)c3ccsc3)ccn2)CC1 | 5.512% | 3.069% | -15.47%
O=C1COC[C@H]([C@H](O)c2ccc(NC(=O)c3ccco3)cc2)N1 | -6.789% | 5.305% | -14.88%
CCCC(=O)N1CCCN(C(=O)Nc2ccc(C)s2)CC1 | 0.09551% | 1.195% | 5.273%
Cc1nc(O)cc(CCNc2nccc(CCC(F)(F)F)n2)n1 | -2.434% | 8.497% | -16.29%
CC1CCCCN1Cc1ccc(-c2ccccc2C(=O)O)cc1 (stereo not drawn) | -1.25% | 2.487% | -8.637%
Cc1cccc(NC(=O)NC2CCN(C3CCOC3)CC2)c1 (stereo not drawn) | 1.1% | -2.764% | 2.828%
CC(C)C(C)N(Cc1cnc2ccccc2n1)Cc1ccco1 (stereo not drawn) | 1.93% | 5.216% | -5.682%
CCN(CC)Cc1ccc(C(=O)NC2CCc3cc(F)ccc32)o1 (stereo not drawn) | 0.3396% | 9.512% | 3.796%
FC(F)(F)Oc1ccc(-c2noc([C@@H]3Cc4nc[nH]c4CN3)n2)cc1 | -4.593% | 1.58% | -3.483%
COc1cccc(CC(=O)N2CCC(Cc3nnc(SC)n3C)CC2)c1 | -3.309% | 10.4% | 4.216%

4 of the entries, repeated:

Result for CC(C)C(C)N(Cc1cnc2ccccc2n1)Cc1ccco1 (stereo not drawn) was MtTrpRS: 1.93%; CoaBC: 5.216%; ClpP1P2: -5.682%.
Result for O=C1COC[C@H]([C@H](O)c2ccc(NC(=O)c3ccco3)cc2)N1 was MtTrpRS: -6.789%; CoaBC: 5.305%; ClpP1P2: -14.88%.
Result for COCCN(Cc1ccc(F)cc1Cl)C(=O)c1cc[n+]([O-])cc1 was MtTrpRS: -2.028%; CoaBC: -2.244%; ClpP1P2: -7.579%.
Result for CCCC1(CO)CCCN(C(=O)CNC(C)=O)C1 (stereo not drawn) was MtTrpRS: -2.448%; CoaBC: 5.395%; ClpP1P2: 6.768%.